Reference: the supplement of paper PMC3334620
Whole data set: some 33,000 sequences, median “E-score (-0.5 to 0.5)” near -0.015, cut for the highest 2% near 0.3. This is one part of the list.

Each sequence was assayed against T1, Abf1 (UniProt P14164) (assay: PBM E-score (8-mer binding enrichment) (E-score (-0.5 to 0.5)); higher = stronger / more preferred TF binding). Settings: protein concentration: 200 nM; construct: GST-full length.
T1 sequence: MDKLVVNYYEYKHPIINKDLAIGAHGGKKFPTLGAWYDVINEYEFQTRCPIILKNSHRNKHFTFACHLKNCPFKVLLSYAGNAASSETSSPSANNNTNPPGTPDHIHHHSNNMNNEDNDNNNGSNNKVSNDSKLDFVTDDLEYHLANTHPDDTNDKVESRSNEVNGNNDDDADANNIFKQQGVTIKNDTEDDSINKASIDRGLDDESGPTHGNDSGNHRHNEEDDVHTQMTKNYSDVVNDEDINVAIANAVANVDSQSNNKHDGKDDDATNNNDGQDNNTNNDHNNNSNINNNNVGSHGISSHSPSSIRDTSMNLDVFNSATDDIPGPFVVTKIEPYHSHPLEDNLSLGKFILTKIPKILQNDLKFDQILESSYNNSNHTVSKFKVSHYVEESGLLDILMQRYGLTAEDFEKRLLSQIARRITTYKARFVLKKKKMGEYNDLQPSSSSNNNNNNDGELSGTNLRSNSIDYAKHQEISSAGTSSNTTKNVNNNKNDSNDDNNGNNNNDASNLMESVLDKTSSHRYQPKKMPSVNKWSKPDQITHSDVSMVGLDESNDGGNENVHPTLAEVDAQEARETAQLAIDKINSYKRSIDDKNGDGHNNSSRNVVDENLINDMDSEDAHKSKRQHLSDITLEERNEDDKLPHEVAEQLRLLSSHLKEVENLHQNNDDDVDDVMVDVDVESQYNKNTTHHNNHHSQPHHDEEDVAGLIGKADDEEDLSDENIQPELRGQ
Method in brief: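 Using PURExpress in vitro transcription/translation, GST-tagged yeast transcription factors were made in full-length or DNA-binding-domain form. These were applied at about 100-200 nM to double-stranded universal all-10-mer Agilent arrays, and bound protein was detected with fluorescent anti-GST. Scans were normalised with masliner before the Universal PBM Analysis Suite assigned E-scores to ungapped eight-base words pooled with their reverse complements.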

Sequence | PBM E-score
AACAAGGC | -0.217
CACGATTC | 0.296
GCTCGACA | -0.239
CAGGCCTC | -0.312
GACTTCCC | -0.129
CGAAACAC | 0.155
GAACCTAA | -0.156
GGAGGGAA | -0.206
CGCCAAAC | 0.00848
CCTATACC | -0.126
AGATTGGA | 0.0781
GGCGATCA | -0.0321
CAGACAGG | -0.104
ACGCGGTG | -0.0744
AATACAAA | 0.175
GAAGATGC | -0.402
AAGGGCTG | -0.168
CCGATATC | 0.21
ATTGTCCG | 0.0278
CCATAGCG | -0.00995
AATTGCCA | 0.0598
GGTACAAA | 0.0902
CTCGATGA | 0.0731
AACACCTC | -0.111
CGCATCGA | 0.137

Reprinted at random: three records from the list
Sequence | PBM E-score
GGAGGGAA | -0.206
CTCGATGA | 0.0731
AAGGGCTG | -0.168

Next part

Sequence | PBM E-score
AGCCAGCT | -0.0898
TATCACCA | 0.364
AGGACGAA | 0.147
AATGCCGT | 0.197
TAAAGCAA | 0.117
CATTGCAA | -0.111
CTCGCCCA | 0.0359
TGCAGCCA | -0.139
AGCCTTCA | -0.0576
CTAGTGAC | 0.316
CGCAGTAG | -0.11
CATGAGCC | 0.0171
ATTGGGGA | -0.0124
AATCACTA | 0.359
AGATTTCA | -0.0514
TATTAAGA | 0.121
ATCTATTC | 0.114
GTATTTGA | 0.0879
GGAGCGAA | -0.0234
ATGGCATC | 0.0457
GGGTCACA | -0.194
GGGCAGTA | 0.119
CGGTACGC | 0.00533
CGTCGCAC | 0.277
ACGGGATG | 0.0243

Sequence | PBM E-score
CCTGTTCC | -0.125
TCGAAGCA | 0.0658
CGCCATAA | -0.158
GAGAACAC | -0.0612
GAACCACA | -0.0389
CGGACGTC | -0.0193
GACGTGAC | 0.294
ACCCAGAT | -0.105
ATAAGTCC | 0.123
ATCTTGTA | 0.123
TACGGACA | 0.156
AGAATGTC | 0.188
GACAGTGA | 0.245
ACACAATA | 0.108
TAAGCCAA | 0.0419
TACACGCA | 0.0167
GAAAGCGA | 0.215
AACTGCTA | -0.0282
CCCAAAGA | -0.132
CAGGTGTC | -0.146
ACATCCAT | 0.136
GATCTAGA | 0.00739
AACTAAGA | 0.0342
AGCCTCTG | -0.329
GCGAGAGC | 0.00542

Copied from the list:
CGCCATAA – PBM E-score: -0.158
ATAAGTCC – PBM E-score: 0.123
AGAATGTC – PBM E-score: 0.188
CGGACGTC – PBM E-score: -0.0193

Remaining list, next part

Sequence | PBM E-score
AATTTAAT | 0.0969
AGCGAAAG | -0.0038
AGACAATA | 0.167
ACCGCTAA | 0.198
CATTATCA | 0.329
CGAAAGAG | -0.0561
TAGTATGA | 0.226
CAAATGCA | 0.0345
AATTTGCT | 0.0613
GCAAATGA | 0.0478
CTCGGTCA | -0.109
AAGTGATC | 0.41
ATATTGGA | 0.123
TCAGGAAA | 0.0608
CCGAGCCA | -0.125
TAGTGGGA | -0.186
ACCCGGGG | -0.162
GATTACGC | 0.0809
ACACACCA | -0.109
GTAGACGA | 0.23
AGAGCGAG | -0.0427
CCTACGCC | -0.0667
ATCACGCC | 0.253
ACATAGGT | 0.0314
GCATCATA | 0.118

Sequence | PBM E-score
GACCAACA | 0.0668
ATAGAAGA | -0.0814
AGAGCCCC | -0.113
CCACATAC | 0.0427
ACACTTGA | -0.163
GAAAGTAC | 0.0499
TCATAGAA | 0.121
GACGATAC | 0.278
ATAACCTC | -0.0844
CAGTGTAG | -0.00192
ATAGTATG | 0.161
AGGGTGGA | -0.148
ACTTACGA | 0.325
CCCTGGCA | -0.259
TAGGAGGA | -0.29
ACCTCAAA | 0.046
CGGGAAGC | 0.0638
GGAACTAC | -0.11
GAAAAACA | -0.164
CACCCGCC | -0.00431
AACACCCC | -0.155
GCTTTGCA | -0.0776
CTGGCGCA | -0.278
CTTACGGC | -0.0264
AAACCGGA | 0.00218

Sequence | PBM E-score
CCGTCCTC | 0.0345
AACCTTTA | -0.0838
GACACAGC | 0.0794
CCCCCGCC | -0.461
AGAGTTAT | -0.0554
GACGAGTA | 0.164
CTTTTAGA | -0.028
CCAAGTAA | 0.0119
GTGCCCAC | -0.214
AGAACGAG | 0.0783
TCCAGGCA | 0.172
AACGCTAG | -0.178
CCATCATC | 0.0859
ACGTCTCT | 0.00432
CGATGTCA | 0.257
CGTCCAAC | 0.0461
ACCGCGTG | 0.0233
CTAGGCTC | -0.173
ATATCAAC | 0.201
GCTCACAA | 0.132
ATATATAT | -0.0977
ACCGGGTA | 0.0301
AAATATCT | 0.0361
CAGCATGA | -0.0955
AAGACACA | -0.231

Sequence | PBM E-score
GTCCCGAA | 0.00205
ACCGTCTA | 0.0278
AACACGCT | -0.047
AATCATAC | 0.106
GAGCACGC | 0.0137
AAAGTCGA | -0.0513
ACTCTAGC | -0.187
CTTTTCTC | 0.152
CTGTGTCC | -0.0659
TAGCCCTA | -0.149
ACTCGGTA | -0.0607
AAGATCAG | -0.115
CGCGCAGC | -0.173
CTCTGATA | 0.171
CCTATTCG | 0.0568
TAATGAGA | 0.0631
CCTGGTCC | -0.205
CAAGTCTA | 0.0238
TAGGGCGA | -0.0932
CATACTTA | 0.113
GGCTCTCA | -0.224
CCCTCCGA | -0.0812
